Assay results reported in the supplement of paper PMC12819154, “High-throughput peptide-centric local stability assay extends protein–ligand identification to membrane proteins, tissues and bacteria” (Nature Structural & Molecular Biology, 2025).
The list shows a part of the results, in another mix than the full data. Small differences around the control level are noise.

The chains behind the UniProt entries cited, without tags or fusion partners. Where a name states a change or a piece, a line headed by the entry shows the natural chain unless it says otherwise.
UniProt P77357: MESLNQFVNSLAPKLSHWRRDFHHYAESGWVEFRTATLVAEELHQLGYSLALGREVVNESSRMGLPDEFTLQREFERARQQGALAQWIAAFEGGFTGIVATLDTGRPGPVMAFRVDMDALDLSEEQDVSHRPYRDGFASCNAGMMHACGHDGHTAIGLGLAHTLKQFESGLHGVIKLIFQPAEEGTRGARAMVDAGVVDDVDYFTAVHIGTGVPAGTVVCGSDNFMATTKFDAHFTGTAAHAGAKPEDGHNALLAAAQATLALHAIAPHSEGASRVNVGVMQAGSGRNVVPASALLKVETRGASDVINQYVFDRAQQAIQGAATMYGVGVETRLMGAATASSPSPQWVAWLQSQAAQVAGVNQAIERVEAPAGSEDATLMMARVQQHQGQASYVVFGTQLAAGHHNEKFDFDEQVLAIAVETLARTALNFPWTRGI
UniProt P77489: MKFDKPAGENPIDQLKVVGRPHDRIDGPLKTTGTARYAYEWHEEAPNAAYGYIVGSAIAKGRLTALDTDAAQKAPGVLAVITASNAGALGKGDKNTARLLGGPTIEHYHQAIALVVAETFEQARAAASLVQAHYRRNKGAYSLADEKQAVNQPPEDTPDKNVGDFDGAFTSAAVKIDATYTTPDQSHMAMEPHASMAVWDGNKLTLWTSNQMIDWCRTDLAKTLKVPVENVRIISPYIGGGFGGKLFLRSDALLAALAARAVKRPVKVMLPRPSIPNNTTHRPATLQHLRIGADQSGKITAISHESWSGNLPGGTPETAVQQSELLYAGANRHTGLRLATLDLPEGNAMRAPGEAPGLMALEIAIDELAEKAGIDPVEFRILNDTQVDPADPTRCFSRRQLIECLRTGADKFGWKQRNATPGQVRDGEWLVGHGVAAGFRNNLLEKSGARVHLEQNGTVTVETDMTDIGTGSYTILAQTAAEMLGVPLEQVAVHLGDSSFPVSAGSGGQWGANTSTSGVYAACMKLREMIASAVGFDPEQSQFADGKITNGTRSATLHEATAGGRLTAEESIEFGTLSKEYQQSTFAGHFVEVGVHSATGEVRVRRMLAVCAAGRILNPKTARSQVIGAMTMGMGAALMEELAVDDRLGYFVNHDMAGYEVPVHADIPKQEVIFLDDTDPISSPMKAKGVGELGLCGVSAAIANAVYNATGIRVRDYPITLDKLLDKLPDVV
UniProt P77791: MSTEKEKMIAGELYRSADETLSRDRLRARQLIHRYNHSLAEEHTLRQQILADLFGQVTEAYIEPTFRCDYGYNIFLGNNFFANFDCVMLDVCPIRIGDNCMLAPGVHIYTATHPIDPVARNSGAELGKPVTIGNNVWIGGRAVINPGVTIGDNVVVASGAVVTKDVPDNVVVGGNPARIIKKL
UniProt P77569: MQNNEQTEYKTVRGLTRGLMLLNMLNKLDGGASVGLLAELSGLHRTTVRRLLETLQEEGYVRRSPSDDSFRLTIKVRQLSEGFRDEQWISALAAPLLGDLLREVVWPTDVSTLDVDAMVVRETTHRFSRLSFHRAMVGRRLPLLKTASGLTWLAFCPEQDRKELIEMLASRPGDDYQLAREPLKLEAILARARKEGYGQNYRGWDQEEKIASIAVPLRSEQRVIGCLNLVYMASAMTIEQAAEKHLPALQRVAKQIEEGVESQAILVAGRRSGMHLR
UniProt Q2M7X4: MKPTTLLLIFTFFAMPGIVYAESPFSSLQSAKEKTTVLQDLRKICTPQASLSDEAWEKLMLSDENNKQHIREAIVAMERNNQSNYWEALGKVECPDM
UniProt Q46908: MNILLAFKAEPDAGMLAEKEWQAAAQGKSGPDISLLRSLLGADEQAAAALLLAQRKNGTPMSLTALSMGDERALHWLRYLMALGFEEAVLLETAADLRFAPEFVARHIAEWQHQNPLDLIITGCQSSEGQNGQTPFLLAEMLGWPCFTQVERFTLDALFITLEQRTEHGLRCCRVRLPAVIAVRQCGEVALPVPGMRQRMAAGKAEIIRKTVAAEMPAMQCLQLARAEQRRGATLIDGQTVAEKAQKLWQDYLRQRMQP
UniProt Q47319: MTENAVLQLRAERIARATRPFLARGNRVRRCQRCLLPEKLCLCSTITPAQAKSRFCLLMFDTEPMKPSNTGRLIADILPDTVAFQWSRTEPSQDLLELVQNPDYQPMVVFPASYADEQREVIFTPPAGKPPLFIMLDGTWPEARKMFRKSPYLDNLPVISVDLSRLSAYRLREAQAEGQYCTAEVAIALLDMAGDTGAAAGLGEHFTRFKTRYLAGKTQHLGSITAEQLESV
UniProt P77726: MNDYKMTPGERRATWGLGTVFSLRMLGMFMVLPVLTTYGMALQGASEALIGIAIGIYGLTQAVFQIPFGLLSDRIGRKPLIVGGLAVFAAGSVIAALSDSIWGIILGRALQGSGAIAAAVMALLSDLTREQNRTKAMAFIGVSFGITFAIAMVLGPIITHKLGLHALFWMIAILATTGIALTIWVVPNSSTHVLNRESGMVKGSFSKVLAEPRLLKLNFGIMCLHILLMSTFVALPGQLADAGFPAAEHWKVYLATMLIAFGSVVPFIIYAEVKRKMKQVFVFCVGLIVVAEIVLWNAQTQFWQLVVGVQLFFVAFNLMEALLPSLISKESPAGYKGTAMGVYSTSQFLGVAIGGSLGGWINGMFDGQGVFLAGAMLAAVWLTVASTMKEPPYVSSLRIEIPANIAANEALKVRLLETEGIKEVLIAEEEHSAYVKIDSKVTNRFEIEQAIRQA
UniProt P77339: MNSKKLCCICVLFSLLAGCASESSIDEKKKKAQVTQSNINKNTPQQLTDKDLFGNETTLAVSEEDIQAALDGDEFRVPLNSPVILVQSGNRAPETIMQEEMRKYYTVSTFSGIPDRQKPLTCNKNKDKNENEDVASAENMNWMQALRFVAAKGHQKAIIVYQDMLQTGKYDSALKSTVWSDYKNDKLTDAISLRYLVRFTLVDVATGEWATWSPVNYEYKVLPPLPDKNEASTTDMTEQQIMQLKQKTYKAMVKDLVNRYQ
UniProt Q46897: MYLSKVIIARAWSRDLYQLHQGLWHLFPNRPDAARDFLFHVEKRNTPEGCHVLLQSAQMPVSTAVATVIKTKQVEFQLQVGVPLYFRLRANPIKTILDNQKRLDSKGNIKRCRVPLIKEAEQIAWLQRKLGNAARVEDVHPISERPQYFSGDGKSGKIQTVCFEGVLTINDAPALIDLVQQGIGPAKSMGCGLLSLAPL
UniProt Q47536: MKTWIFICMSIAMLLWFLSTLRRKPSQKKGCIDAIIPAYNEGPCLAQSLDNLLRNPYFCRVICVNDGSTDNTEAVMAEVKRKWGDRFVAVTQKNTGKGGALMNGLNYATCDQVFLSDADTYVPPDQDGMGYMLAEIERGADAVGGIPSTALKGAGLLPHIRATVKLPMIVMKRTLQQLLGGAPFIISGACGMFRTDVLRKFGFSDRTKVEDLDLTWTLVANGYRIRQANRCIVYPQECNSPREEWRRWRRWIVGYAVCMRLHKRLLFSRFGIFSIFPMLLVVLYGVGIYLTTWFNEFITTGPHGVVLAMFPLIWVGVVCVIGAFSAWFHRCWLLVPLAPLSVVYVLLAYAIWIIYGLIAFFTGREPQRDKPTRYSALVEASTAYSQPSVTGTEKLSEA
UniProt Q46905: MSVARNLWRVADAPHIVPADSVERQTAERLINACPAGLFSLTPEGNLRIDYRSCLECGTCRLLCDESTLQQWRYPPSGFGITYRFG
UniProt Q46907: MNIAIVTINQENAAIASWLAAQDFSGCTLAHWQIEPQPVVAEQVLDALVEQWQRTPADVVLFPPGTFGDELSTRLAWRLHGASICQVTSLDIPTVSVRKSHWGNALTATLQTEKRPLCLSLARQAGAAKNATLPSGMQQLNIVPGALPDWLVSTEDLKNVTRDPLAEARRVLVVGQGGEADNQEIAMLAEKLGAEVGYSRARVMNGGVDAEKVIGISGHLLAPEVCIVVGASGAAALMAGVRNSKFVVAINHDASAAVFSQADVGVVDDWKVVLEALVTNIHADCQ
UniProt Q46829: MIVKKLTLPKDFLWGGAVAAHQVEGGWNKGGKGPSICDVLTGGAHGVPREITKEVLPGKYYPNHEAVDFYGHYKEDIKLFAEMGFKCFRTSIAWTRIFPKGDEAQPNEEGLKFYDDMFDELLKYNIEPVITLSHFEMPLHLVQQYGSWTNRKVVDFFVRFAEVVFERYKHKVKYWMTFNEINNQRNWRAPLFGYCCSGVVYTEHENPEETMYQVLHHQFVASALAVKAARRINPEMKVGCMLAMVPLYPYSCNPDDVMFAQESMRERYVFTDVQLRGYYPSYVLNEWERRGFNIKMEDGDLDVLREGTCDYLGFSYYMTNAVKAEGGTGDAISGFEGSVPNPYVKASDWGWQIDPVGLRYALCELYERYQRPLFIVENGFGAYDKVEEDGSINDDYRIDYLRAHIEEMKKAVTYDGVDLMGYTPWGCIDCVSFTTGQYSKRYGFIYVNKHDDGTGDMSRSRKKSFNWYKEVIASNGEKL
UniProt P77625: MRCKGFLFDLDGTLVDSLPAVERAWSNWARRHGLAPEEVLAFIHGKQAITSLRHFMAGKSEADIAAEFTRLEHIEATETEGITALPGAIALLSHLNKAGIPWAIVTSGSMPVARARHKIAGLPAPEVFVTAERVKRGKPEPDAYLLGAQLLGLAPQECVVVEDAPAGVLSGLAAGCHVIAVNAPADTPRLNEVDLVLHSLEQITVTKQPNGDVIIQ
UniProt P77774, whole entry: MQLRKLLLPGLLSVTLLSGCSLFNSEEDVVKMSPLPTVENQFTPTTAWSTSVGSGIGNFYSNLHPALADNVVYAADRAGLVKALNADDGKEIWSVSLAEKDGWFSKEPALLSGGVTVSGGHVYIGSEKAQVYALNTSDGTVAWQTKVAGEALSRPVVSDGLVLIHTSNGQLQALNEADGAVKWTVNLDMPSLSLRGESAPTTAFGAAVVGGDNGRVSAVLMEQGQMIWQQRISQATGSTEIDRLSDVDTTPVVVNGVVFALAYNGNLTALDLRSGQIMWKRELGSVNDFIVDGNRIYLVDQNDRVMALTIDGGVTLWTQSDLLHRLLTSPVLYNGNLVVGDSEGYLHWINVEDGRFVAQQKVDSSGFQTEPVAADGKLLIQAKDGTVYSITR
UniProt P77439: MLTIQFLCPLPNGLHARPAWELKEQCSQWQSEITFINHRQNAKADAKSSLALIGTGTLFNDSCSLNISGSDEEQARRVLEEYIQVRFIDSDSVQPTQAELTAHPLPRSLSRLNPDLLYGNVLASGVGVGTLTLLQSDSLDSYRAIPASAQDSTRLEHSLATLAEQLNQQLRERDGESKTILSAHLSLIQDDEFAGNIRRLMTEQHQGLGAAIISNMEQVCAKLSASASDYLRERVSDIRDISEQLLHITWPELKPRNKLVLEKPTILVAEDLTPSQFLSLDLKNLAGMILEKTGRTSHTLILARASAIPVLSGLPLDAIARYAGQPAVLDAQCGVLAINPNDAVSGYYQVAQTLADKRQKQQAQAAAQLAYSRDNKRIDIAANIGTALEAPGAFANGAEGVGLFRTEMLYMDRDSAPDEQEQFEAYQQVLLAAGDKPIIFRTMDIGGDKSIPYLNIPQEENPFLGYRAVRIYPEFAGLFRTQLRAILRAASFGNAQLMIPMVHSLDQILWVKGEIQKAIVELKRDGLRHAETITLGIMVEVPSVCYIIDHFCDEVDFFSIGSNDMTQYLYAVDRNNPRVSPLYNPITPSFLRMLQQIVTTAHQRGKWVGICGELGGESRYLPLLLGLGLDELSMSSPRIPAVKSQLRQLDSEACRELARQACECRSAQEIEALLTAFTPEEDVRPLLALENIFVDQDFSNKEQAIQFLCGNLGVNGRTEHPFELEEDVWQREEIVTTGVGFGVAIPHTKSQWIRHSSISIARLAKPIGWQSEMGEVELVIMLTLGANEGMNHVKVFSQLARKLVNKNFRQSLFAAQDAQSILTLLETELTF
UniProt P77713: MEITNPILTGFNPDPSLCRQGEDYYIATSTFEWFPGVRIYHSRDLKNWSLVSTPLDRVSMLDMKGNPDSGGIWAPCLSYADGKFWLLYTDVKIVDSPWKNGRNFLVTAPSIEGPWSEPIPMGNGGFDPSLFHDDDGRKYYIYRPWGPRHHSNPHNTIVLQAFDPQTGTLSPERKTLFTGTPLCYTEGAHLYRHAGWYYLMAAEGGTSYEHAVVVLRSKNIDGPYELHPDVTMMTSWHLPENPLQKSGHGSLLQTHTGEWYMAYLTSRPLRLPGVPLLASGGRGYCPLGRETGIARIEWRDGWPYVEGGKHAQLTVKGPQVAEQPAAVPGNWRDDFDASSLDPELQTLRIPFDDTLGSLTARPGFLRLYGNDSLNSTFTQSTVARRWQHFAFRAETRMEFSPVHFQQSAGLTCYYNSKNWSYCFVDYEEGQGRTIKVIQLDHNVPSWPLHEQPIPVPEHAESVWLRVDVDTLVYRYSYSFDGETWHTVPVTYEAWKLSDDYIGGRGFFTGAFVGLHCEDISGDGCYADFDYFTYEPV
UniProt Q46801: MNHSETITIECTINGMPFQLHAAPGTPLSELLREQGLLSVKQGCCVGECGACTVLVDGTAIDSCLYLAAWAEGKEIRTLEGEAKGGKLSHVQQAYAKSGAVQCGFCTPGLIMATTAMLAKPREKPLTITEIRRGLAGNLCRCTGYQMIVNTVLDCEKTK

Compound: Nc1ncnc2c1ncn2[C@@H]1O[C@H](COP(=O)(O)OP(=O)(O)OP(=O)(O)O)[C@@H](O)[C@H]1O [adenosine 5'-triphosphate]
Experiment: log2 fold change of tryptic peptide abundance, ligand vs vehicle (limited proteolysis) (log2 ratio); higher = more trypsin-susceptible (destabilized)
Settings: ligand concentration: 5 mM; sample: E. coli desalted lysate; replicate design: treated before aliquoting
Method: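 HT-PELSA: desalted E. coli K-12 BW25113 lysate (with 12 mM MgCl2) incubated with 5 mM ATP (pH 7) or water for 30 min at 25 C, then a 4 min trypsin pulse at 22 C. Peptides were quantified by DIA-MS (4 replicates). Value is the peptide log2 fold change (treated/control); negative = stabilized. Scale: negative = ligand-stabilized region.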
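Also: lysate desalted by size exclusion to strip endogenous ATP, peptide intensities built from DIA-NN precursor signals, and peptides missing any value discarded before comparison.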

Target	log2 fold change
UniProt P77357 (peptide sequence: VNVGVMQAGSGR, peptide start residue: 276)	0.238
UniProt P77489 (peptide sequence: AGIDPVEFR, peptide start residue: 372)	0.47
UniProt P77475 (peptide sequence: AAGMDAVDVR, peptide start residue: 177)	0.0514
UniProt P77791 (peptide sequence: EKMIAGELYR, peptide start residue: 6)	0.697
UniProt Q47679 (peptide sequence: VGSDGNGCHYRGDSR, peptide start residue: 194)	-0.753
UniProt P77569 (peptide sequence: SPSDDSFR, peptide start residue: 64)	-0.673
UniProt Q2M7X4 (peptide sequence: EAIVAMER, peptide start residue: 72)	0.139
UniProt Q46908 (peptide sequence: GATLIDGQTVAEK, peptide start residue: 232)	-0.499
UniProt Q47319 (peptide sequence: CQRCLLPEKLCLCSTITPAQAK, peptide start residue: 31)	-1.97
UniProt P77726 (peptide sequence: LLETEGIKEVLIAEEEHSAYVK, peptide start residue: 415)	-0.263
UniProt P77339 (peptide sequence: KAQVTQSNINK, peptide start residue: 31)	0.648
UniProt Q46897 (peptide sequence: DFLFHVEK, peptide start residue: 36)	0.678
UniProt P77559 (peptide sequence: QILSMVDDAAAR, peptide start residue: 72)	-0.0982
UniProt Q46808 (peptide sequence: GETADFTSVSDK, peptide start residue: 500)	0.48
UniProt Q47536 (peptide sequence: WGDRFVAVTQK, peptide start residue: 83)	0.308
UniProt P77626 (peptide sequence: AMLGQIER, peptide start residue: 35)	0.311
UniProt Q46864 (peptide sequence: VLDKHPELLNEIR, peptide start residue: 119)	0.262
UniProt Q46836 (peptide sequence: SHCPHCQQTIR, peptide start residue: 64)	0.00641
UniProt Q46905 (peptide sequence: VADAPHIVPADSVER, peptide start residue: 10)	0.402
UniProt Q46907 (peptide sequence: VMNGGVDAEK, peptide start residue: 203)	-1.11
UniProt Q46829 (peptide sequence: LFAEMGFK, peptide start residue: 79)	-0.411
UniProt P77561 (peptide sequence: KIESYQGAAGGWGAVK, peptide start residue: 4)	0.162
UniProt Q46866 (peptide sequence: KAPILFHYTNLAEGVTEQR, peptide start residue: 132)	0.704
UniProt P77625 (peptide sequence: RHGLAPEEVLAFIHGK, peptide start residue: 31)	0.668
UniProt P77774 (peptide sequence: IYLVDQNDR, peptide start residue: 296)	-0.293
UniProt P77439 (peptide sequence: MLQQIVTTAHQR, peptide start residue: 593)	0.878
UniProt P77624 (peptide sequence: RIVEAPAIK, peptide start residue: 172)	0.517
UniProt P77334 (peptide sequence: LDQVFVR, peptide start residue: 582)	-0.644
UniProt P77713 (peptide sequence: NWSLVSTPLDR, peptide start residue: 47)	0.35
UniProt Q46801 (peptide sequence: EKPLTITEIRR, peptide start residue: 123)	-0.236

Part of the list above in another layout.
Target,log2 fold change
"UniProt P77439 (peptide sequence: MLQQIVTTAHQR, peptide start residue: 593)",0.878
"UniProt P77624 (peptide sequence: RIVEAPAIK, peptide start residue: 172)",0.517
